Laboratory results as given in the supplement of paper PMC10849652.
Some of the results follow.

The chains behind the UniProt entries cited, without tags or fusion partners. Where a name states a change or a piece, a line headed by the entry shows the natural chain unless it says otherwise.
UniProt P20936: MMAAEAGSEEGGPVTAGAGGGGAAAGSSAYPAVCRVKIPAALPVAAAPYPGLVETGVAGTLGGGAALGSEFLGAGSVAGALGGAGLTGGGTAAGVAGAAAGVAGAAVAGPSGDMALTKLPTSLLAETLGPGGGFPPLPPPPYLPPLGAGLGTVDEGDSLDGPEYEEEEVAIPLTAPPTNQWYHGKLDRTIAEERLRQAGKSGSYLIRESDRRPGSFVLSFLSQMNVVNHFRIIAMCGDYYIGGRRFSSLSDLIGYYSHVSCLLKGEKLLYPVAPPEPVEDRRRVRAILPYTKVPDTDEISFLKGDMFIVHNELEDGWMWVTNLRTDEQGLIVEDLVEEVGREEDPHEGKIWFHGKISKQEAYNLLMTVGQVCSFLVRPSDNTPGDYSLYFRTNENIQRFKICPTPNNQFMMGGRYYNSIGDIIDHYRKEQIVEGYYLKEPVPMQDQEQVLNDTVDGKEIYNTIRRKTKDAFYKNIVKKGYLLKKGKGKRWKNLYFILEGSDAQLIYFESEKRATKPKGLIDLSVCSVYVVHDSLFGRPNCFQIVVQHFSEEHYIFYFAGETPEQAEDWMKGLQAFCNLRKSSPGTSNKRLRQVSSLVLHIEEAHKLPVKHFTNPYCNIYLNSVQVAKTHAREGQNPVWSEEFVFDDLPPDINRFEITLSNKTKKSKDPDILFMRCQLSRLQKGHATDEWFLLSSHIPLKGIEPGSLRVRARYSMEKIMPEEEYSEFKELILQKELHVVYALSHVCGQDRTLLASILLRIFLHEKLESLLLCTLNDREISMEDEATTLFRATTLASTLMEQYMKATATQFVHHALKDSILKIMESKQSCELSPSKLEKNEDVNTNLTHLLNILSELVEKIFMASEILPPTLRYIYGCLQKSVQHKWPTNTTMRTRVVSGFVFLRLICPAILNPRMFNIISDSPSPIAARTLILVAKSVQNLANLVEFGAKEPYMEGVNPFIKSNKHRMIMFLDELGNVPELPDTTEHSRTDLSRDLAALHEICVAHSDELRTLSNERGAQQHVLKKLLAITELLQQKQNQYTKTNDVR
UniProt P98179: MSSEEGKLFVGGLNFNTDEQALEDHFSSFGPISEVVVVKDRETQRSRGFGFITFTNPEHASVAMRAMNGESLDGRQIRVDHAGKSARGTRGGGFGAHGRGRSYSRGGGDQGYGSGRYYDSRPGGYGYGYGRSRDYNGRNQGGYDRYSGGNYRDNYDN
UniProt Q96PK6: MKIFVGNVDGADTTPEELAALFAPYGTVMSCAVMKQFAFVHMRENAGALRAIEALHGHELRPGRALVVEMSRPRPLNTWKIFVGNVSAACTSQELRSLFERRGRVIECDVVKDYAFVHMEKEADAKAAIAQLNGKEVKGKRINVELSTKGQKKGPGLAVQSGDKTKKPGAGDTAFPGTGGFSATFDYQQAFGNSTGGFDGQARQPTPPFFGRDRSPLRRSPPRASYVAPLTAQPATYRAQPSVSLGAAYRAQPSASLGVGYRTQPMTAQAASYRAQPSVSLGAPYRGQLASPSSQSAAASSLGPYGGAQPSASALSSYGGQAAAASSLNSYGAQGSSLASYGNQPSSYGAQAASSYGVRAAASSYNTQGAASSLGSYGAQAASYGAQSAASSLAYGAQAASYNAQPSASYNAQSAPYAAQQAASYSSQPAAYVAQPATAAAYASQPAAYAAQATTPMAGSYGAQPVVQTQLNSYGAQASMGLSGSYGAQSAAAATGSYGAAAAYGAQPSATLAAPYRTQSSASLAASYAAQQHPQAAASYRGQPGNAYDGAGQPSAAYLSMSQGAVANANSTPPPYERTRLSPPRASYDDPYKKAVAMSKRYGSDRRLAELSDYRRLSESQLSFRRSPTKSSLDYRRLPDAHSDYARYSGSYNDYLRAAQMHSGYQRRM
UniProt Q8TEU7: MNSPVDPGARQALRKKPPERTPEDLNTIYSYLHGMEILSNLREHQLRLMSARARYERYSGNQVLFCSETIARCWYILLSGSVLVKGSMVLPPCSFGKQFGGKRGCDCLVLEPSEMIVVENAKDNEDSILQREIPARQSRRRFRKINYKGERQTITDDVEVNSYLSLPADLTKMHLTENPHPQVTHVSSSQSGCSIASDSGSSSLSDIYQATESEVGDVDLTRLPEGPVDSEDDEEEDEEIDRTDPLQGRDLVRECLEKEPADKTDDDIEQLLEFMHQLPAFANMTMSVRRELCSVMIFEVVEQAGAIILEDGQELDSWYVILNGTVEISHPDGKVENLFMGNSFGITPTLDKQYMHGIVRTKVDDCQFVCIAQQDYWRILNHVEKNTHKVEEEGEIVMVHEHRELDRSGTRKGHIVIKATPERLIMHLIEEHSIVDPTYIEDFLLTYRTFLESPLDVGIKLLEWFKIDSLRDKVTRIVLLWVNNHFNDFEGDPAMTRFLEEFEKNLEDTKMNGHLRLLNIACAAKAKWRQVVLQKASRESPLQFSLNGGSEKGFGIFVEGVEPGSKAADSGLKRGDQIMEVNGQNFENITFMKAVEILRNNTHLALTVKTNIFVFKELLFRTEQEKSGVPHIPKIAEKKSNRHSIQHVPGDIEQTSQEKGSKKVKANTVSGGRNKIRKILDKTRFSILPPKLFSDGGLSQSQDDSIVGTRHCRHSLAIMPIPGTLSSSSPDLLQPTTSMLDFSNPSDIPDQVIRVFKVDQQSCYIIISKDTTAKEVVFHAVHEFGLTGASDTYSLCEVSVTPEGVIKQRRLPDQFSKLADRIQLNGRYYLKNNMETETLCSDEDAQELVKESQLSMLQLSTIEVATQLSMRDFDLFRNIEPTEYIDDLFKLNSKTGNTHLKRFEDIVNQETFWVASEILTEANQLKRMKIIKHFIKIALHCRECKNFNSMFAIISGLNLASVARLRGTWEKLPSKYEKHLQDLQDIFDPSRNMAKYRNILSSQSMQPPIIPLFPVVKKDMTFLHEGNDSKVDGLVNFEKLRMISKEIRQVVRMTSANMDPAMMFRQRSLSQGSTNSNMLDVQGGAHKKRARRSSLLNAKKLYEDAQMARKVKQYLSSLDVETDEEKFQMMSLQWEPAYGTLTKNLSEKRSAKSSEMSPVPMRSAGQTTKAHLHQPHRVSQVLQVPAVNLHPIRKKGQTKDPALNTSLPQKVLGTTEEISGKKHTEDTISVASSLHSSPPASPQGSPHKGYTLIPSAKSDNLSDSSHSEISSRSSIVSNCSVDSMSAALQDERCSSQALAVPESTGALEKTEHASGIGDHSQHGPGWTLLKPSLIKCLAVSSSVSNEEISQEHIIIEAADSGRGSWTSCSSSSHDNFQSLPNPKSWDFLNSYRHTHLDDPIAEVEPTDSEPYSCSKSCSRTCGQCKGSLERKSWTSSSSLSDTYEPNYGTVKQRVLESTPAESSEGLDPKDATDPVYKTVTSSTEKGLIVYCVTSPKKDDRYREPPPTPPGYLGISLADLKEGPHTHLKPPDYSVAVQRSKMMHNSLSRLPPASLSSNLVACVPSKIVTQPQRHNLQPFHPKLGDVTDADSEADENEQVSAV
UniProt P28749: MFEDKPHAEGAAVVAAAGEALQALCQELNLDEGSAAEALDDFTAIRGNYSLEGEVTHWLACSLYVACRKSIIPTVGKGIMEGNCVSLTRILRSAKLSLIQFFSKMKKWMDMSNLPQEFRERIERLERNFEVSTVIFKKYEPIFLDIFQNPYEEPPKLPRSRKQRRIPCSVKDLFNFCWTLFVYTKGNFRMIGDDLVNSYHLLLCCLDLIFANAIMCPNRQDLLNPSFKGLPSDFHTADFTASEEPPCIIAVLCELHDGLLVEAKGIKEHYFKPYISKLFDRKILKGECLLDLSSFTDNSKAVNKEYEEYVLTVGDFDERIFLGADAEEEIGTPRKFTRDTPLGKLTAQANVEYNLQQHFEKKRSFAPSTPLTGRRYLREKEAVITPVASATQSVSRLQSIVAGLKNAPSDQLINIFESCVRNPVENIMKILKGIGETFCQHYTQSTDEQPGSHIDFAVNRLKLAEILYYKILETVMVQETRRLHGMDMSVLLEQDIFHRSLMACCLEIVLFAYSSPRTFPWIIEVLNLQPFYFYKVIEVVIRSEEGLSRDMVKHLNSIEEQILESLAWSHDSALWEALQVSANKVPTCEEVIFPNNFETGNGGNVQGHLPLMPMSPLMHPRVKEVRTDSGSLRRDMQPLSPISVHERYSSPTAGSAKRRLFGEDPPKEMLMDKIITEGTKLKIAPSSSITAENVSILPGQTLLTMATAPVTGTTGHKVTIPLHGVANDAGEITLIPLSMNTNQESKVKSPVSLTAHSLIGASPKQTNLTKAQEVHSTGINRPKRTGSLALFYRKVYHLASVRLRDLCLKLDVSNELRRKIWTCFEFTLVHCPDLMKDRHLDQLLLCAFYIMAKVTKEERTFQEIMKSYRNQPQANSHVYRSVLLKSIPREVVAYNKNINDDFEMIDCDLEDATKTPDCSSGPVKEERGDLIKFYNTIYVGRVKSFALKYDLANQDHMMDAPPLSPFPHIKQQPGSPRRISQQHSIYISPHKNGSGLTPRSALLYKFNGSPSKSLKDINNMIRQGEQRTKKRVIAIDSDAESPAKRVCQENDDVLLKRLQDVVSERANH
UniProt Q13905: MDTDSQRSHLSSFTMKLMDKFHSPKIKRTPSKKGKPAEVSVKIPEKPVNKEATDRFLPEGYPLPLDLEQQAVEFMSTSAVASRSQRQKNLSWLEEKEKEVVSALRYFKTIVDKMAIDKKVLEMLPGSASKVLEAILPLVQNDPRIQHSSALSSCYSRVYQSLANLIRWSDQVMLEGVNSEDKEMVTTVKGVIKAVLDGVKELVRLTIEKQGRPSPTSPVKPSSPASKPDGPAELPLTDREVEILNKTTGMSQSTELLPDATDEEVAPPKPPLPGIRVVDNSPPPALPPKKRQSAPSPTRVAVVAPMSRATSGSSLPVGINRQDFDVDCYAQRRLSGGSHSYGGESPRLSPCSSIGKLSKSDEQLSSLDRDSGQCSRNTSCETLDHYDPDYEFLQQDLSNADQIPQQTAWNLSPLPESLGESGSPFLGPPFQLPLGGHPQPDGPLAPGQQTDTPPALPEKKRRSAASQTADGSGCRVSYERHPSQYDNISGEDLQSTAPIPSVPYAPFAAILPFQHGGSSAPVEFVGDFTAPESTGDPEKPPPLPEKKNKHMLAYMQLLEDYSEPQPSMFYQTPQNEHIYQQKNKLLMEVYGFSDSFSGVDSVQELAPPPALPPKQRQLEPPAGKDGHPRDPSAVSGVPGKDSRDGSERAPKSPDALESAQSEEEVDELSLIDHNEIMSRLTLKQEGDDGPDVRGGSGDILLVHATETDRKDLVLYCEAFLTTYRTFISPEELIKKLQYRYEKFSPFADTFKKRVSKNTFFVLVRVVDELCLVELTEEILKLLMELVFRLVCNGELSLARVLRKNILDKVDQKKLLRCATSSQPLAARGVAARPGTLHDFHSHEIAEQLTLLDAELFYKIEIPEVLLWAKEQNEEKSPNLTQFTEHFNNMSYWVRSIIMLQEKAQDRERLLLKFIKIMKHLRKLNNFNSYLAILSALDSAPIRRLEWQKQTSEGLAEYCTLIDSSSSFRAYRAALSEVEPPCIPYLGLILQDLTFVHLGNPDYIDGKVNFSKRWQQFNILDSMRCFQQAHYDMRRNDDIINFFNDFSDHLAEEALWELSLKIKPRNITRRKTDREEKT
UniProt Q9NS23: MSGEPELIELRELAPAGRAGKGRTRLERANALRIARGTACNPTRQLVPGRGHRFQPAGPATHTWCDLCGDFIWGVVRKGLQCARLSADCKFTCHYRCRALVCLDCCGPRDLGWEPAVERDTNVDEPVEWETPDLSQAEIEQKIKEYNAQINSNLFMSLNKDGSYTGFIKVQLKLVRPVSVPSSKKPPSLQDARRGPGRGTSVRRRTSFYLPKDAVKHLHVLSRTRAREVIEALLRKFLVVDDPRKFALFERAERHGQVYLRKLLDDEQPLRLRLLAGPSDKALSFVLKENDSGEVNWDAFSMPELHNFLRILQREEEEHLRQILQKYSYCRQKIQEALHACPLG
UniProt Q15771: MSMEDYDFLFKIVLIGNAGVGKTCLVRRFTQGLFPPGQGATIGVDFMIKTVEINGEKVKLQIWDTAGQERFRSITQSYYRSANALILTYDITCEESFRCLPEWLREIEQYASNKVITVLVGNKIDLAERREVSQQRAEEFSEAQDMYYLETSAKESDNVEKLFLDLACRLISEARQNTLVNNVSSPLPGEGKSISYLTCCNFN
UniProt Q8N0V3: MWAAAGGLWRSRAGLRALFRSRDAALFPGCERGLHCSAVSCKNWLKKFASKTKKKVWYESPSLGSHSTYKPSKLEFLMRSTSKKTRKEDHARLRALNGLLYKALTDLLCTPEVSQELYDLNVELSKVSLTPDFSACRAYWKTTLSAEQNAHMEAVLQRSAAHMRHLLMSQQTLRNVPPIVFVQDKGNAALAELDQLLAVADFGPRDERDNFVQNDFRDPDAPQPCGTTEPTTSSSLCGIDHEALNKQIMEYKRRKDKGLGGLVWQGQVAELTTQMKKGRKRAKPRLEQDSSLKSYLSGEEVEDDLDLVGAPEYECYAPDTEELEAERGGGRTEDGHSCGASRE

Key:
Assay in all cases: log2 fold change, soluble protein after heating vs DMSO (PISA); higher = thermal stabilisation; K562 cells, 10 uM, 30 min; active = over 0.2 and 3.5 SD of the protein, either way, in both replicates (recomputed)
saracatinib = compound: CN1CCN(CCOc2cc(OC3CCOCC3)c3c(Nc4c(Cl)ccc5c4OCO5)ncnc3c2)CC1 [saracatinib]
In short: (§1)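 Soluble protein was quantified by TMTpro 16plex LC-MS/MS after channel sums were equalised. It was obtained as the supernatant after 21,000xg for 90 min from pooled aliquots of K562 cells (2×10^6 cells/mL, 10 μM compound, 30 min) heated for 3 min across 48°C-58°C and extracted in PBS with 0.5% NP-40 at 4°C. Thermal stability values are relative to control samples and come from duplicates. They are given as log2 fold changes.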

sotrastaurin = compound: CN1CCN(c2nc(C3=C(c4c[nH]c5ccccc45)C(=O)NC3=O)c3ccccc3n2)CC1 [sotrastaurin]
In short: as §1

alvocidib = compound: CN1CC[C@H](c2c(O)cc(O)c3c(=O)cc(-c4ccccc4Cl)oc23)[C@H](O)C1 [alvocidib]
In short: as §1

[1] = compound: CNC(=O)C1=CC=CC=C1NC2=NC(=NC=C2Cl)NC3=C(C=C(C=C3)N4CCOCC4)OC
In short: as §1

defactinib = compound: CNC(=O)c1ccc(Nc2ncc(C(F)(F)F)c(NCc3nccnc3N(C)S(C)(=O)=O)n2)cc1 [defactinib]
In short: as §1

[2] = compound: CNc1nc(-c2ccc3c(N)n[nH]c3c2)cc(N2C[C@@H](C(=O)NC3CCCCC3)CC[C@H]2C)n1
In short: as §1

[3] = compound: COC(=O)[C@H](CCSC)NC(=O)C1=C(C=C(C=C1)NC[C@H](CS)N)C2=CC=CC=C2
In short: as §1

Tubastatin A = compound: CN1CCc2c(c3ccccc3n2Cc2ccc(C(=O)NO)cc2)C1 [Tubastatin A]
In short: as §1

rucaparib = compound: CNCc1ccc(-c2[nH]c3cc(F)cc4c3c2CCNC4=O)cc1 [rucaparib]
In short: as §1

encorafenib = compound: COC(=O)N[C@@H](C)CNc1nccc(-c2cn(C(C)C)nc2-c2cc(Cl)cc(NS(C)(=O)=O)c2F)n1 [encorafenib]
In short: as §1

Measured: log2 fold change

RBM23 (UniProt Q86U06)
inactive: saracatinib -0.088 | sotrastaurin 0.002 | alvocidib -0.208 | [1] 0.022 | defactinib -0.117 | [2] -0.353 | [3] 0.048

RASA1 (UniProt P20936)
inactive: saracatinib 0.165 | sotrastaurin -0.041 | alvocidib 0.043 | Tubastatin A -0.025 | [1] 0.062 | defactinib -0.049 | rucaparib -0.334 | [2] 0.003 | encorafenib 0.386 | [3] 0.031

RBM3 (UniProt P98179)
inactive: saracatinib -0.07 | sotrastaurin 0.076 | alvocidib 0.106 | Tubastatin A 0.022 | [1] -0.018 | defactinib 0.273 | rucaparib 0.259 | [2] 0.034 | encorafenib 0.03 | [3] 0.024

RAB10 (UniProt P61026)
inactive: saracatinib 0.026 | sotrastaurin 0.037 | alvocidib -0.005 | Tubastatin A -0.02 | [1] -0.012 | defactinib -0.007 | rucaparib -0.034 | [2] -0.026 | encorafenib -0.002 | [3] -0.006

RAB5C isoform 2 (UniProt P51148)
inactive: saracatinib 0.08 | sotrastaurin -0.011 | Tubastatin A 0.013 | [1] -0.013 | defactinib -0.011 | rucaparib -0.02 | [2] 0.003 | encorafenib -0.039 | [3] 0.017

Looked up one by one from the list above, two records:
RAB10 (UniProt P61026)
inactive: saracatinib 0.026 | sotrastaurin 0.037 | alvocidib -0.005 | Tubastatin A -0.02 | [1] -0.012 | defactinib -0.007 | rucaparib -0.034 | [2] -0.026 | encorafenib -0.002 | [3] -0.006

RASA1 (UniProt P20936)
inactive: saracatinib 0.165 | sotrastaurin -0.041 | alvocidib 0.043 | Tubastatin A -0.025 | [1] 0.062 | defactinib -0.049 | rucaparib -0.334 | [2] 0.003 | encorafenib 0.386 | [3] 0.031

(cont.)

RAMAC (UniProt Q9BTL3)
inactive: saracatinib -0.008 | sotrastaurin 0.016 | alvocidib 0.115 | Tubastatin A -0.007 | [1] 0.019 | defactinib 0.052 | rucaparib 0.138 | [2] -0.058 | encorafenib -0.018 | [3] -0.071

RBM33 (UniProt Q96EV2)
inactive: saracatinib 0.071 | sotrastaurin -0.017 | Tubastatin A 0.007 | [1] -0.021 | rucaparib -0.017 | [2] -0.044 | encorafenib 0.02 | [3] 0.03
active: defactinib -0.273

RABL6 (UniProt Q3YEC7)
inactive: saracatinib 0.036 | sotrastaurin 0.001 | alvocidib -0.003 | Tubastatin A -0.025 | [1] -0.066 | defactinib -0.017 | rucaparib 0.026 | [2] -0.034 | encorafenib -0.023 | [3] 0.015

RAB8A isoform 2 (UniProt P61006)
inactive: saracatinib 0.024 | sotrastaurin 0.038 | alvocidib 0.003 | Tubastatin A -0.066 | [1] 0.012 | defactinib 0.016 | rucaparib -0.052 | [2] -0.031 | encorafenib 0.012 | [3] -0.009

RACK1 (UniProt D6RHH4)
inactive: saracatinib -0.28 | sotrastaurin -0.079 | alvocidib 0.165 | Tubastatin A 0.077 | [1] -0.017 | defactinib -0.019 | rucaparib 0.302 | [2] -0.334 | encorafenib -0.095 | [3] -0.06

RASA2 (UniProt Q15283)
inactive: saracatinib -0.022 | sotrastaurin -0.03 | alvocidib 0.253 | defactinib 0.1 | rucaparib -0.029 | [2] 0.122 | encorafenib -0.241 | [3] 0.105

RAD51D (UniProt O75771)
inactive: alvocidib -0.036

RBM14 (UniProt Q96PK6)
inactive: alvocidib -0.038

RBBP4 isoform 2 (UniProt Q09028)
inactive: saracatinib 0.182 | alvocidib 0.063 | [1] -0.031 | rucaparib -0.049 | [2] -0.036 | encorafenib -0.012

RALBP1 (UniProt Q15311)
inactive: sotrastaurin -0.243 | alvocidib -0.15 | Tubastatin A -0.434 | defactinib 0.22 | [3] -0.001

RAB18 (UniProt H0Y6T8)
inactive: alvocidib 0.083 | Tubastatin A -0.006 | defactinib 0.139 | rucaparib -0.311 | encorafenib 0.027 | [3] -0.055

RASSF3 (UniProt Q86WH2)
inactive: alvocidib 0.146 | [1] 0.055 | defactinib 0.037 | rucaparib -0.01 | encorafenib -0.065 | [3] -0.149

RBCK1 (UniProt Q9BYM8)
inactive: saracatinib -0.094 | alvocidib 0.106 | Tubastatin A -0.102 | [1] -0.026 | defactinib -0.111 | [2] 0.018 | [3] -0.203

RAPGEF6 isoform 4 (UniProt Q8TEU7)
inactive: sotrastaurin -0.06 | alvocidib -0.129 | Tubastatin A -0.248 | [1] 0.028 | defactinib -0.244 | rucaparib -0.122 | encorafenib 0.047 | [3] -0.007

RBL1 (UniProt P28749)
inactive: [1] -0.203 | rucaparib 0.024 | encorafenib -0.057

RABEP2 (UniProt Q9H5N1)
inactive: alvocidib -0.046 | [1] 0.16

RAPGEF1 isoform 3 (UniProt Q13905)
inactive: sotrastaurin 0.041

RASSF1 (UniProt Q9NS23)
inactive: sotrastaurin -0.27 | defactinib 0.075 | [3] 0.047

RANBP3 isoform 2 (UniProt Q9H6Z4)
inactive: sotrastaurin 0.109 | Tubastatin A -0.021 | [1] -0.043 | rucaparib -0.005 | encorafenib -0.113

RAB30 (UniProt Q15771)
inactive: saracatinib 0.023 | alvocidib -0.249 | [1] 0.022 | defactinib 0.02 | rucaparib -0.009 | [2] 0.009 | encorafenib 0.014 | [3] -0.041

RBFA (UniProt Q8N0V3)
inactive: rucaparib 0.03 | encorafenib 0.027

RAD17 (UniProt O75943)
inactive: saracatinib -0.095 | Tubastatin A 0.156 | [2] -0.079

RAB3B (UniProt P20337)
inactive: sotrastaurin -0.053 | Tubastatin A 0.071 | [1] -0.35

RAB19 isoform 2 (UniProt A4D1S5)
inactive: sotrastaurin 0.144

RBBP9 (UniProt O75884)
inactive: sotrastaurin 0.066 | defactinib 0.225 | [3] 0.078

RBBP6 (UniProt Q7Z6E9)
inactive: sotrastaurin 0.11 | Tubastatin A 0.074 | [1] -0.006 | defactinib -0.056 | rucaparib 0.067 | encorafenib 0.055 | [3] 0.04

RAB28 (UniProt P51157)
inactive: saracatinib -0.021 | alvocidib 0.007 | [1] -0.064 | defactinib -0.023 | [2] -0.123 | [3] -0.134
